# Test results as given in US20220387412A1, “Novel Superebastine Against Therapy Resistant Prostate Cancer” (University of Kentucky Research Foundation, priority 2019, published 2022).
# Columns and labels:
# prostate cancer cells = test: Growth inhibition / cell death of prostate cancer cell cultures; type: cell-based
# Excerpt: RAGE activation promotes proliferation, invasive bone homing, and metastasis of PCa cells.
# NSCLC cells = details: read-out: LC50 (lysosomal catastrophe); NSCLC (non-small cell lung cancer) cells; cited from earlier work
compound,measurement,setting,value
"CC(C)(C)c1ccc(C(=O)CCCN2CCC(OC(c3ccccc3)c3ccccc3)CC2)cc1 [EBS, 4-[4-(Diphenylmethoxy)-1-piperidinyl]-1-[4-(2-methyl-2-propanyl)phenyl]-1-butanone, reference compound]",inhibition at 10 µM,"prostate cancer cells; prostate cancer cell cultures, 10 μM, 24 h",≤ 50%
same,concentration required for growth inhibition,prostate cancer cells; prostate cancer cells,10 µM
same,CC50,NSCLC cells,18 to 22 µM
